This is one part of the list. Further columns of the screen follow, without active or inactive calls. The list favours compounds with an active or inconclusive main result. The note in brackets gives the kind of curve behind each potency; many fits are weak.
Experiment: qHTS Assay for Lipid Storage Modulators in Drosophila S3 Cells;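 as to cell number change: cells counted by Cell Tracker Red CMTPX staining in the red channel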
Conditions: BODIPY lipid droplet fluorescence, 18-24 h; for cell number change: measured here: cell count max response, cells fed with added oleic acid
Outline: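 Drosophila S3 cells got compounds at several concentrations plus oleic acid (400 uM solution). Laser-scanning cytometry with 488 nm excitation read lipid droplets at 500-530 nm and cells at 575-640 nm. Percent activity was relative to 20 uM Triacsin C.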

[1] = measured here: cell number channel AC50, cells fed with added oleic acid
[2] = measured here: lipid fluorescence (Fed channel) AC50, cells fed with added oleic acid

Structure (SMILES)	cell number change [%]	AC50 [1]	AC50 [2]
COc1ccc(N(C(=O)c2snc(C(N)=O)c2N)C(C(=O)NC2CCCC2)c2ccco2)cc1 (stereo unspecified)	20.5		
Cc1ccc2c(SCC(=O)NCc3ccco3)nc(-c3ccc(F)cc3)nc2c1	19	0.231 µM [rising, full curve, poor fit]	
CCCCCc1nnc(N)s1	-63.3	20.6 µM [falling, partial curve, poor fit]	
Cc1ccc(CN2CC(C(=O)O)CC2=O)cc1 (stereo unspecified)	-6.83		6.51 µM [falling, single point]
CCCn1c(N2CCC(Cc3ccccc3)CC2)nc2c1c(=O)[nH]c(=O)n2C	-35	16.4 µM [falling, single point]	4.11 µM [rising, single point]
COc1ccc(OC)c(CN2CCCC(CO)C2)c1 (stereo unspecified)	-106	29.1 µM [falling, single point]	
Cc1cccc(-n2cnc3cc([N+](=O)[O-])ccc32)c1	1.05		0.291 µM [rising, full curve]
O=C(CCC1CCCCC1)Nc1ccccc1C(=O)N1CCOCC1	-23.8		5.17 µM [falling, partial curve]
Cc1ccc(OCCCC(=O)Nc2ccc(Br)cc2)cc1	9.22		0.326 µM [falling, partial curve, poor fit]
O=S(=O)(c1ccc(-c2ccccc2)cc1)N1CCCC1	-24		
CC1=C(C)CC(C(=O)NCCc2ccc(F)cc2)C(C(=O)O)C1 (stereo unspecified)	14.5		29.1 µM [rising, single point]
COc1ccccc1N=C1SC(C(=O)Nc2cccc(Cl)c2Cl)C(N)=C1C(N)=O (stereo unspecified)	-18.5		2.31 µM [rising, single point]
CC(OC(=O)c1cccs1)C(=O)NC1CCCCC1C (stereo unspecified)	0.184		1.03 µM [rising, full curve, poor fit]
COc1ccc(NS(=O)(=O)c2cc(NC(=O)c3ccc(=O)[nH]n3)ccc2N2CCOCC2)cc1	5.95		
Cc1ccc(/C=N/NC(=S)NCCc2ccccc2)s1	60.2	20.6 µM [rising, single point]	
O=C(CN1CCCCCC1)Nc1ccc(Cl)cn1	-0.529		
O=C(Nc1ccc(Cl)c(Cl)c1)OCc1cncs1	34.3	1.84 µM [rising, partial curve, poor fit]	2.31 µM [rising, partial curve]
CCn1c(-c2cc(-c3ccc(C)cc3)nc3ccccc23)n[nH]c1=S	-9.04	2.91 µM [rising, single point]	
CC(=O)N/N=C/c1ccc(OCCOc2ccc(Br)cc2)cc1	27.3		5.17 µM [rising, full curve]
CC(C)C(OC(=O)c1nsc(Cl)c1Cl)C(=O)NCc1ccccc1 (stereo unspecified)	9.01		
Cc1cccc2cc(C#N)c(SCC(=O)NCc3cccs3)nc12	37.9	1.46 µM [rising, full curve]	

2 successive compounds from above:
Structure (SMILES)	cell number change [%]	AC50 [1]	AC50 [2]
Cc1ccc2c(SCC(=O)NCc3ccco3)nc(-c3ccc(F)cc3)nc2c1	19	0.231 µM [rising, full curve, poor fit]	
CCCCCc1nnc(N)s1	-63.3	20.6 µM [falling, partial curve, poor fit]	

Later entries:

Structure (SMILES)	cell number change [%]	AC50 [1]	AC50 [2]
O=C(NC(Cc1c[nH]c2ccccc12)c1nnc2n1CCCCC2)c1ccccc1Cl (stereo unspecified)	1.99		1.3 µM [rising, full curve]
O=C(N/N=C/c1ccco1)c1cc(-c2ccc(Br)s2)[nH]n1	-18.2		4.11 µM [falling, full curve]
Cn1cnnc1SCC(=O)c1ccc2c(c1)OCO2			2.31 µM [rising, partial curve, poor fit]
Cc1ccc(S(=O)(=O)N[C@@H](Cc2ccccc2)C(=O)CCl)cc1	-38.2	16.4 µM [falling, single point]	1.64 µM [falling, partial curve]
O=C1c2ccccc2NC(c2ccc(-c3cccc(Cl)c3)o2)N1O (stereo unspecified)	-15.3		
CC(Nc1ncnc2sccc12)c1ccccc1 (stereo unspecified)	10.8		0.82 µM [falling, full curve]
CC(C)c1nc(SCC(=O)Nc2nccs2)c2ccccc2n1	-16.7		29.1 µM [falling, single point]
O=C1c2ccccc2C(=O)N1CC(=O)N1c2ccccc2CCc2ccccc21	163		
Cc1ccc(NC(=O)CN2C(=O)S/C(=C\c3ccc(C(=O)O)cc3)C2=O)cc1	10.3		8.2 µM [rising, partial curve]
COc1ccc(CCNC(=O)c2cccc(S(=O)(=O)N3CCc4ccccc4C3)c2)cc1	30.3	14.6 µM [rising, single point]	4.11 µM [rising, partial curve, poor fit]
O=C1c2ccccc2COc2ccc(O)cc21	8.89		0.0731 µM [falling, full curve, poor fit]
O=C(Nc1ccccc1N1CCOCC1)c1ccccc1NS(=O)(=O)c1ccc(F)cc1	34.7	3.26 µM [rising, partial curve]	3.26 µM [rising, partial curve]
CN(c1c(C#N)c(C(F)(F)F)nn1C)N(S(C)(=O)=O)S(C)(=O)=O	-17.9	0.00461 µM [falling, full curve, poor fit]	23.1 µM [falling, single point]
CC(C)(C)OC(=O)NCCCC[C@@H](C(=O)NCCCCCCCCCCC(=O)N1CCN(C(=O)OC(C)(C)C)CC1)n1cc(CCCC(=O)O)nn1	11.6	5.8 µM [falling, single point]	
COc1ccc(-c2c(=O)n(OC)c3ccccc3[n+]2[O-])cc1OC	22.5		
Cc1cccc(C)c1NC(=O)C1NC(=O)CC1c1ccccc1 (stereo unspecified)	3.54		6.51 µM [falling, single point]
COc1ccccc1C(=O)N(NC(=O)Oc1ccccc1)C(C)(C)C	50	16.4 µM [rising, single point]	
O=C(CSc1ccccc1Cl)N1CCOCC1	21.5		14.6 µM [rising, partial curve, poor fit]
Cc1c(OCC(=O)N[C@@H](CSCc2ccccc2)C(=O)O)ccc2c3c(c(=O)oc12)CCC3	35		
CC(=O)Nc1ccc(S(=O)(=O)NNC(=O)CCC(=O)Nc2cc(C)ccc2C)cc1			1.03 µM [falling, full curve, poor fit]
COc1ccc(-n2nc(C(=O)NCC(=O)Nc3ccc(F)cc3)c3ccccc3c2=O)cc1	46.4	18.4 µM [rising, single point]	6.51 µM [rising, single point]

Structure (SMILES)	cell number change [%]	AC50 [1]	AC50 [2]
CCN(CC)c1ncnc2scc(C3COc4ccccc4O3)c12 (stereo unspecified)	-30.3	8.2 µM [falling, partial curve, poor fit]	14.6 µM [falling, partial curve, poor fit]
Cc1ccc(-c2nc3c(c(=O)c4ccccc4n3C)c(=O)n2-c2ccccc2)cc1	-0.235		
COc1ccc(/C(C)=N/NC(=O)CNC(=O)c2ccncc2)c(OC)c1	-8.96		6.51 µM [falling, partial curve, poor fit]
Cc1cc(C)c[n+](CC(=O)c2c(C)cc(C)c([N+](=O)[O-])c2C)c1	-9.12		
Cc1cc(NC(=O)C2CC(c3ccccc3Cl)=NO2)no1 (stereo unspecified)	-2.81		0.00461 µM [falling, full curve, poor fit]
COc1ccc(CNC(=O)Nc2cccc(C)c2)cc1	12.7		6.51 µM [rising, partial curve]
CN1CCN(c2ccc(C(=O)c3ccccc3)cc2[N+](=O)[O-])CC1	12.7		
Cc1ccc(NC(=O)C(C)N2C(=O)c3ccccc3S2(=O)=O)cc1Cl (stereo unspecified)			10.3 µM [rising, partial curve]
N#CC1=C(N)OC2=C(CN(Cc3ccccc3)C/C2=C\c2cccnc2)C1c1cccnc1 (stereo unspecified)		1.3 µM [rising, full curve, poor fit]	0.231 µM [rising, full curve, poor fit]
Cc1ccc(-n2c(Cc3cccn3C)nnc2SCC(=O)NCc2ccc3c(c2)OCO3)cc1	35.4	2.06 µM [rising, full curve]	0.731 µM [rising, full curve, poor fit]
CCOc1ccc(CSCCNC(=S)Nc2ccc(OC)cc2)cc1	2.45		
Cc1noc(C)c1COc1ccc(C(=O)OCC(=O)NC23CC4CC(CC(C4)C2)C3)cc1	2.55		
Cc1cc([N+](=O)[O-])nn1CC(=O)N1CCN(Cc2ccccc2)CC1	30		29.1 µM [rising, single point]
Cc1cccc(NS(=O)(=O)c2cccc(C(=O)N3CCCCCCC3)c2)c1	-43.7	23.1 µM [falling, partial curve]	5.8 µM [falling, single point]
COc1ccc(NC(=O)c2ccc3c(c2)NC(=O)CS3)cc1	40.7	29.1 µM [rising, single point]	
Cc1ccc(S(=O)(=O)N2CCC(=O)N(C(COCc3cccc(Cl)c3)C(C)C)CC2)cc1 (stereo unspecified)	0.924		18.4 µM [rising, single point]
CN(C)c1ccccc1C(=O)c1ccccc1N(C)C	2.8		
O=C(CCN1C(=O)/C(=C\c2ccccc2)SC1=S)NNC(=O)c1ccncc1	27.7		0.731 µM [rising, full curve, poor fit]
O=C(CN(C(=O)CNS(=O)(=O)c1ccc(F)cc1)c1ccccc1F)NCc1ccco1	2.56		
CCOC(=O)C1=C(CSCC(=O)OC)NC(=O)NC1c1cc(C)ccc1C (stereo unspecified)	31.7	6.51 µM [rising, partial curve]	14.6 µM [rising, partial curve]

From PubChem BioAssay AID2685 (National Center for Advancing Translational Sciences (NCATS), 2010)
